From paper doi:10.1101/2020.07.24.220525
Substitutions are numbered along the chain they refer to. Names may count otherwise. Like-named read-outs stand apart in the source and are kept apart here. No constants are given. Whether binding was seen depends on the method and setting. For some of these results: Binding seen in cells or lysates may run through a third protein. Some entries that bind do so weakly or less than the wild type. For some of these results: Tags and fused reporters may be left off the sequences shown.

The chains behind the UniProt entries cited, without tags or fusion partners. Where a name states a change or a piece, a line headed by the entry shows the natural chain unless it says otherwise. Residues count along the entry.
UniProt Q99081, 9-642: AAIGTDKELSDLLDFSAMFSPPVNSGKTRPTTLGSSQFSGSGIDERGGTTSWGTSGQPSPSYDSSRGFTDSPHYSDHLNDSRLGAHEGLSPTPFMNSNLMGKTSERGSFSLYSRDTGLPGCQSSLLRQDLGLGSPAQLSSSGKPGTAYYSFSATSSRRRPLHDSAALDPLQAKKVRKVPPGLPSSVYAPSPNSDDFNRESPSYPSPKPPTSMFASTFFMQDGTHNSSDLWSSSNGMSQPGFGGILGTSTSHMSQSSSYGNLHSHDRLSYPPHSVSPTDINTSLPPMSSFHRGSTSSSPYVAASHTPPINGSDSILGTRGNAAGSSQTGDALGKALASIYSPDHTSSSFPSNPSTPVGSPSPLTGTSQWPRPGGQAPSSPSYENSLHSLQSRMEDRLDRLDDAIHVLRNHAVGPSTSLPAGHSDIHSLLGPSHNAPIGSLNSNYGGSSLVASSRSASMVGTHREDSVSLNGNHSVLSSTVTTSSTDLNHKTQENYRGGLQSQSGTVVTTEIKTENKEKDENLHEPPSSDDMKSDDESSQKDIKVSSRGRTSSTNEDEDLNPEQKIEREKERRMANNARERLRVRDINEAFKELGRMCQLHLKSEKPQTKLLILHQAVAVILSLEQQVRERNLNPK
UniProt Q99081, whole entry: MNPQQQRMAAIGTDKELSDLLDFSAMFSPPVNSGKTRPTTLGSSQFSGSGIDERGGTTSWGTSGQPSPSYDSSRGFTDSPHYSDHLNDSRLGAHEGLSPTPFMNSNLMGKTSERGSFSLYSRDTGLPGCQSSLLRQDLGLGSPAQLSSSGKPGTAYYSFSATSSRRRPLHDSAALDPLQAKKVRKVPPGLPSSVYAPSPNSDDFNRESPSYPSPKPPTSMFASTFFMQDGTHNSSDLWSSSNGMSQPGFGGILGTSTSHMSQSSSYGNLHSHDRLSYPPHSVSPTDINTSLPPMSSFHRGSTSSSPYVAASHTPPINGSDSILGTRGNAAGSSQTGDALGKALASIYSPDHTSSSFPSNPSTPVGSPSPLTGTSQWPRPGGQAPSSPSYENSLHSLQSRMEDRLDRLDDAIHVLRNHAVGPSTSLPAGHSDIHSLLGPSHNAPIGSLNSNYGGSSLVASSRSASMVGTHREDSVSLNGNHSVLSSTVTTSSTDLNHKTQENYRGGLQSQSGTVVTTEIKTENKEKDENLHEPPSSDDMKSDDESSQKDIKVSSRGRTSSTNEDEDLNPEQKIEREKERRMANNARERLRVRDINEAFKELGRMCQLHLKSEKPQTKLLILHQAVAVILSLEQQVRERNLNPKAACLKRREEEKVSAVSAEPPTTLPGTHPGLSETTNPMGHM
UniProt P15884, 1-652: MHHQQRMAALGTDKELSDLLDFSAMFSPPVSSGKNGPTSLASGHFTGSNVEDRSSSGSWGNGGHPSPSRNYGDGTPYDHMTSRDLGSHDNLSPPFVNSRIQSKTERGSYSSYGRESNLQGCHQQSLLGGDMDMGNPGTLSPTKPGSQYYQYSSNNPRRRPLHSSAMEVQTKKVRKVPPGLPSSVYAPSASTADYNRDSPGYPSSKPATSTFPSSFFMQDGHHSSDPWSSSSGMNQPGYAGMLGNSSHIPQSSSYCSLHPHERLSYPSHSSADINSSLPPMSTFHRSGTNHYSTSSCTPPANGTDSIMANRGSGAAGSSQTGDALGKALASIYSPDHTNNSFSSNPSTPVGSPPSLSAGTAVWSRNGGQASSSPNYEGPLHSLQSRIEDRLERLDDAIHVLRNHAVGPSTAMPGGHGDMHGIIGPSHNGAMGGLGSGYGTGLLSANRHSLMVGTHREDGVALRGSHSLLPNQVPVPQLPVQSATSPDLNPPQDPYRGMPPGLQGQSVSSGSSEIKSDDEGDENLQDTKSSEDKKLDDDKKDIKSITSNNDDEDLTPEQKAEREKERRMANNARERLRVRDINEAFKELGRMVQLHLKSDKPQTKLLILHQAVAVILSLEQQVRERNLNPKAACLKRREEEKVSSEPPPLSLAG

T1: E47 (full-length) (UniProt P15923)
T1 sequence: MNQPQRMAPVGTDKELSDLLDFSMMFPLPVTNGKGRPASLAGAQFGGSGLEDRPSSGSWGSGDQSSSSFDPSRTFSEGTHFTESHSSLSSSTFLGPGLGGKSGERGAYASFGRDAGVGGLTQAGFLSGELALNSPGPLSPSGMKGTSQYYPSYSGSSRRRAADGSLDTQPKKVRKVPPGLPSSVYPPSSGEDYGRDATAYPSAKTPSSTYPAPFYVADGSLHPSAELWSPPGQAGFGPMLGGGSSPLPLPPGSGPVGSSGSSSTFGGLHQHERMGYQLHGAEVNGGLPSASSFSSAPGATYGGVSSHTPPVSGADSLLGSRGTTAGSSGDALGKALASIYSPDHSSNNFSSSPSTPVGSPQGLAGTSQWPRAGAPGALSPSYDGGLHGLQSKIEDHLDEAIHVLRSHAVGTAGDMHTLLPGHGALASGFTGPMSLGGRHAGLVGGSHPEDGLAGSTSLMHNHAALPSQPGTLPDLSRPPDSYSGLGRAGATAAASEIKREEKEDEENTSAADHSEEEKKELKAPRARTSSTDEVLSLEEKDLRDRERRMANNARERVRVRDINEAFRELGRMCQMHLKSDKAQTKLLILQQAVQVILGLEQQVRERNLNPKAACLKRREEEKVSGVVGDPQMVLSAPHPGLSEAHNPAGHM

T2: Mtg16 P209T fused to LexA DNA-binding domain (UniProt O54972)
T2 sequence: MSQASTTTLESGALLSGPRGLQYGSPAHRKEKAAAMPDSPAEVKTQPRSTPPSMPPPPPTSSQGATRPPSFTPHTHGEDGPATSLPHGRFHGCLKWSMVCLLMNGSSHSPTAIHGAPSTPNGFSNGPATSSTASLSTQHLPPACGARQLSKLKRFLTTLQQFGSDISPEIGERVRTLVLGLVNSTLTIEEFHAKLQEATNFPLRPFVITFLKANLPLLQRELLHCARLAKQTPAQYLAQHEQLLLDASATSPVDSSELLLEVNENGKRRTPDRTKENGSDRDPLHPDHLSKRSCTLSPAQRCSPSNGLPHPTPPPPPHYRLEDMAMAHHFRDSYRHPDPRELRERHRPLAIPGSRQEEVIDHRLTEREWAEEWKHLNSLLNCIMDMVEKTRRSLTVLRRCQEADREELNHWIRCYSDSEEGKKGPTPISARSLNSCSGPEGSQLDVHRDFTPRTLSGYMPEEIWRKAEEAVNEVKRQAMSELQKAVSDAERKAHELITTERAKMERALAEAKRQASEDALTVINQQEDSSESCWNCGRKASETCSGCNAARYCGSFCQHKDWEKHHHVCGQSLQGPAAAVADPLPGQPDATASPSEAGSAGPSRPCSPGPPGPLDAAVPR

T3: Mtg16 wild type fused to LexA DNA-binding domain (UniProt O54972)
T3 sequence: T2 sequence with T209P

T4: Mtg16 P205A fused to LexA DNA-binding domain (UniProt O54972)
T4 sequence: T2 sequence with P205A, T209P

T5: Mtg16 F210A fused to LexA DNA-binding domain (UniProt O54972)
T5 sequence: T2 sequence with T209P, F210A

B1: Myc-Mtg16 wild type (protein, UniProt O54972 1-620)
chain: T2 sequence with T209P
B2: Myc-Mtg16 P209T (protein, UniProt O54972 1-620)
chain: T2 sequence

How the values were obtained:
E47 (full-length) [1] = target: T1, E47 (full-length); assay: co-IP
[2] = target: HEB (full-length) in 293T lysate (human (endogenous in 293T)) (UniProt Q99081); assay: co-IP
[3] = target: T2, Mtg16 P209T fused to LexA DNA-binding domain; assay: two-hybrid
[4] = target: T3, Mtg16 wild type fused to LexA DNA-binding domain; assay: two-hybrid
[5] = target: T4, Mtg16 P205A fused to LexA DNA-binding domain; assay: two-hybrid
[6] = target: T5, Mtg16 F210A fused to LexA DNA-binding domain; assay: two-hybrid
E47 (full-length) [7] = target: T1, E47 (full-length); assay: co-IP; remark: listed apart in the source
[8] = target: HEB (full-length) in 293T lysate (human (endogenous in 293T)) (UniProt Q99081); assay: co-IP; remark: listed apart in the source

Row | Molecule | binding [3] | binding [4] | binding [6] | binding (E47 (full-length) [7]) | binding [8] | further results
1 | Myc-Mtg16 F210A (from UniProt O54972 1-620) | – | – | – | – | – | binding (E47 (full-length) [1]): no binding; binding [2]: binds weakly
2 | TCF4(aa1-652)-Gal4-AD (from UniProt P15884 1-652) (domain or fragment) | binds | binds | no binding | – | – | binding [5]: binds
3 | fragment of HEB (aa9-642) fused to the Gal4 activation domain (from UniProt Q99081 9-642) (domain or fragment) | binds | binds | no binding | – | – | –
4 | B1 | – | – | – | binds | binds | –
5 | B2 | – | – | – | no binding | binds weakly | –
